{"source": "PubChem BioAssay AID743121 – NCATS, 2013", "aim": "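Genes whose silencing strengthens cell killing by camptothecin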 (primary screen)", "cells": "MDA-MB-231 cells, a human breast cancer line", "reagent": "single siRNA against human genes, 20 nM siRNA (0.8 pmol per well)", "time to read-out": "120 h (drug added 48 h after transfection, read 72 h later)", "challenge": "camptothecin 20 nM (about EC30) for 72 h; vehicle 0.1% DMSO in parallel plates", "detection": "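Cell viability by ATP luminescence (CellTiter-Glo) as % of non-targeting siRNA wells, and the log2 ratio of viability without drug over viability with camptothecin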", "direction": "log2 vehicle/camptothecin viability: higher = stronger sensitisation to camptothecin", "call rule": "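Active genes have an RSA gene-level p-value below 0.001, computed from the ratios of their separate siRNAs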", "note": "The deposit covers about 26,000 reagents; below is a random part of them. 167 of all reagents (0.63%) count as active. 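Calls are per gene from RSA p-values that are not deposited; an individual active-marked siRNA can sensitise only weakly.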 Entries without a mark were called inactive. The numbers tell different reagents against one gene apart. Not all columns of the deposit are shown."}
{"gene symbol":"CASP4","siRNA no.":1,"log2 vehicle/camptothecin viability":-0.269}
{"gene symbol":"CASP4","siRNA no.":2,"log2 vehicle/camptothecin viability":-0.139}
{"gene symbol":"CASP4","siRNA no.":3,"log2 vehicle/camptothecin viability":-1.14}
{"gene symbol":"CASP4","siRNA no.":4,"log2 vehicle/camptothecin viability":-0.409}
{"gene symbol":"NPC1L1","siRNA no.":1,"log2 vehicle/camptothecin viability":-0.397}
{"gene symbol":"NPC1L1","siRNA no.":2,"log2 vehicle/camptothecin viability":-0.00492}
{"gene symbol":"NPC1L1","siRNA no.":3,"log2 vehicle/camptothecin viability":-0.0216}
{"gene symbol":"NPC1L1","siRNA no.":4,"log2 vehicle/camptothecin viability":-0.224}

Copied from the entries so far for reference:
{"gene symbol":"CASP4","siRNA no.":1,"log2 vehicle/camptothecin viability":-0.269}
{"gene symbol":"CASP4","siRNA no.":2,"log2 vehicle/camptothecin viability":-0.139}

Further results follow.
{"gene symbol":"ATF1","siRNA no.":1,"log2 vehicle/camptothecin viability":0.137}
{"gene symbol":"ATF1","siRNA no.":2,"log2 vehicle/camptothecin viability":0.0456}
{"gene symbol":"ATF1","siRNA no.":3,"log2 vehicle/camptothecin viability":-0.195}
{"gene symbol":"ATF1","siRNA no.":4,"log2 vehicle/camptothecin viability":-0.00643}
{"gene symbol":"SENP5","siRNA no.":1,"log2 vehicle/camptothecin viability":-0.00327}
{"gene symbol":"SENP5","siRNA no.":2,"log2 vehicle/camptothecin viability":-0.112}
{"gene symbol":"SENP5","siRNA no.":3,"log2 vehicle/camptothecin viability":-0.18}
{"gene symbol":"CHD4","siRNA no.":1,"log2 vehicle/camptothecin viability":-0.129}
{"gene symbol":"CHD4","siRNA no.":2,"log2 vehicle/camptothecin viability":-0.408}
{"gene symbol":"CHD4","siRNA no.":3,"log2 vehicle/camptothecin viability":-0.508}
{"gene symbol":"CHD4","siRNA no.":4,"log2 vehicle/camptothecin viability":-0.173}
{"gene symbol":"LINGO1","siRNA no.":1,"log2 vehicle/camptothecin viability":-0.6}
{"gene symbol":"LINGO1","siRNA no.":2,"log2 vehicle/camptothecin viability":0.0843}
{"gene symbol":"LINGO1","siRNA no.":3,"log2 vehicle/camptothecin viability":-0.253}
{"gene symbol":"CCL27","siRNA no.":1,"log2 vehicle/camptothecin viability":-0.139}
{"gene symbol":"CCL27","siRNA no.":2,"log2 vehicle/camptothecin viability":-0.524}
{"gene symbol":"CCL27","siRNA no.":3,"log2 vehicle/camptothecin viability":-0.339}
